PubChem BioAssay AID1259424 | University of Nebraska Medical Center, 2018

Purpose: 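Rank knockdowns across the genome by resemblance to the KSR1 depletion profile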 (primary screen)
System: human HCT116 colon cancer cells
Knock-down reagent: siRNA pool against human genes, 50 nM
Read-out: 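Log2 levels of six mRNAs (branched-DNA multiplex), adjusted by two reference genes and the non-targeting median, then scored against the average KSR1 knockdown pattern as Pearson r and euclidean distance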
Scale: mean correlation with KSR1 profile and KSR1 correlation: higher = expression change more like KSR1 knockdown; mean distance from KSR1 profile: higher = expression change less like KSR1 knockdown
The deposit covers about 14,000 reagents; shown is a part drawn at random. 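Higher correlation or smaller distance means closer resemblance to KSR1 loss; control wells, including KSR1 knockdowns, recur on many plates.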 Not stated in the record: the time to read-out.

gene | mean correlation with KSR1 profile | mean distance from KSR1 profile | KSR1 correlation, replicate 1 | KSR1 correlation, replicate 2 | KSR1 correlation, replicate 3
TIMM22 (translocase of inner mitochondrial membrane 22) | 0.161 | 0.979 | -0.249 | -0.627 | -0.0173
METAP1 (methionyl aminopeptidase 1) | 0.22 | 1.68 | 0.133 | 0.322 | 0.215
XYLT1 (xylosyltransferase 1) | -0.135 | 2.94 | -0.376 | 0.103 | -0.197
PTPRO (protein tyrosine phosphatase receptor type O) | -0.039 | 1.9 | -0.0225 | -0.199 | -0.0451
DYNC2I1 (dynein 2 intermediate chain 1) | -0.348 | 1.94 | -0.147 | -0.464 | -0.313
NKTR (natural killer cell triggering receptor) | 0.863 | 1.71 | 0.789 | 0.918 | 0.8
PDCL (phosducin like) | 0.587 | 2.59 | 0.708 | 0.495 | 0.525
ORC1 (origin recognition complex subunit 1) | -0.392 | 2.29 | -0.108 | -0.211 | -0.56
S100A12 (S100 calcium binding protein A12) | 0.149 | 2.71 | 0.193 | 0.0668 | 0.159
C11orf58 (chromosome 11 open reading frame 58) | 0.235 | 3.14 | 0.426 | 0.201 | 0.138
ASH1L (ASH1 like histone lysine methyltransferase) | -0.572 | 3.16 | -0.556 | -0.527 | -0.342
INTS5 (integrator complex subunit 5) | 0.112 | 4.91 | -0.0258 | 0.22 | -0.134
ACYP1 (acylphosphatase 1) | -0.357 | 1.46 | -0.724 | -0.433 | 0.0616
SH3GL3 (SH3 domain containing GRB2 like 3, endophilin A3) | -0.478 | 5.18 | -0.416 | -0.468 | -0.286
ZFP91 (ZFP91 zinc finger protein, atypical E3 ubiquitin ligase) | 0.504 | 1.76 | 0.414 | 0.488 | 0.541
PANK3 (pantothenate kinase 3) | 0.655 | 0.984 | 0.544 | 0.632 | 0.605
GPN2 (GPN-loop GTPase 2) | 0.215 | 2.03 | 0.43 | 0.312 | 0.175
SAMD9L (sterile alpha motif domain containing 9 like) | -0.246 | 2.6 | -0.329 | -0.264 | -0.251
LAMB4 (laminin subunit beta 4) | 0.118 | 2.57 | 0.239 | 0.0377 | 0.0491
FMO5 (flavin containing dimethylaniline monoxygenase 5) | 0.266 | 3.32 | 0.306 | 0.591 | -0.0228
PPP1R13L (protein phosphatase 1 regulatory subunit 13 like) | 0.376 | 1.34 | 0.581 | 0.323 | 0.135
MAGOHB (mago homolog B, exon junction complex subunit) | -0.583 | 1.46 | -0.257 | -0.453 | -0.305
IL23A (interleukin 23 subunit alpha) | -0.798 | 3.91 | -0.683 | -0.584 | -0.582
KIFAP3 (kinesin associated protein 3) | 0.387 | 1.15 | -0.0178 | 0.501 | 0.753
RRAGD (Ras related GTP binding D) | -0.0483 | 1.3 | -0.0132 | -0.119 | 0.139
NCKAP1 (NCK associated protein 1) | -0.775 | 3.19 | -0.965 | -0.579 | -0.785
TFAP2D (transcription factor AP-2 delta) | 0.0116 | 1.76 | 0.354 | -0.175 | 0.244
CLK2 (CDC like kinase 2) | 0.223 | 1.69 | 0.227 | 0.00315 | -0.139
FBXL15 (F-box and leucine rich repeat protein 15) | 0.675 | 2.56 | 0.438 | 0.311 | 0.701
SYNE2 (spectrin repeat containing nuclear envelope protein 2) | 0.067 | 1.75 | 0.00449 | -0.103 | 0.347
KIAA1549 | 0.0313 | 1.79 | -0.117 | 0.513 | 0.134
KCNJ9 (potassium inwardly rectifying channel subfamily J member 9) | 0.0055 | 2.17 | 0.114 | -0.175 | 0.0811
DDX56 (DEAD-box helicase 56) | 0.432 | 4.26 | 0.00375 | 0.41 | -0.236
SS18L1 (SS18L1 subunit of BAF chromatin remodeling complex) | -0.187 | 2.26 | -0.257 | -0.182 | 0.0464
CCNY (cyclin Y) | 0.0464 | 1.12 | -0.438 | 0.0439 | 0.409
PARP14 (poly(ADP-ribose) polymerase family member 14) | -0.245 | 2.24 | -0.223 | -0.419 | -0.584
ARL6IP5 (ARF like GTPase 6 interacting protein 5) | -0.317 | 1.88 | -0.157 | -0.342 | -0.424
NRXN1 (neurexin 1) | -0.652 | 2.02 | -0.661 | -0.172 | -0.604
ZNF514 (zinc finger protein 514) | 0.447 | 1.88 | 0.267 | 0.477 | 0.435
IDH3B | -0.567 | 2.46 | -0.609 | -0.539 | -0.559
STAM (signal transducing adaptor molecule) | 0.536 | 3.64 | 0.555 | 0.435 | 0.557
PSMB10 (proteasome 20S subunit beta 10) | 0.544 | 1.52 | 0.542 | 0.535 | 0.561
COPG2 (coat protein complex I subunit gamma 2) | 0.161 | 1.99 | -0.109 | -0.283 | 0.095
ZRSR2 | 0.145 | 1.85 | 0.17 | 0.274 | -0.069
ALKBH1 (alkB homolog 1, histone H2A dioxygenase) | 0.0586 | 1.55 | -0.0974 | 0.103 | 0.0297
RAB26 (RAB26, member RAS oncogene family) | 0.617 | 2.3 | 0.371 | 0.362 | 0.787
SLC25A39 | -0.593 | 6.84 | -0.143 | -0.183 | -0.355
PHC2 (polyhomeotic homolog 2) | 0.797 | 4.24 | 0.636 | 0.778 | 0.784
SPTAN1 (spectrin alpha, non-erythrocytic 1) | -0.465 | 2.21 | -0.296 | -0.618 | -0.0452
PHYHIP (phytanoyl-CoA 2-hydroxylase interacting protein) | -0.0955 | 1.92 | 0.0997 | 0.103 | -0.243
